Assay results taken from US10350164B2, “Process for preparing a dry powder formulation comprising an anticholinergic, a corticosteroid and a beta-adrenergic” (CHIESI FARMACEUTICI S.p.A., priority 2017, dated 2019).

Legend:
[1] = Uniformity of distribution of the active ingredients in the blend by HPLC; type: physicochemical
Experimental: It is usually determined according to known methods, for instance by taking samples from different parts of the powder and testing the component by HPLC or other equivalent analytical methods.
The uniformity of distribution of the active ingredients was evaluated by withdrawing 12 samples from different parts of the blend and evaluated by HPLC.

[2] = Particle size distribution (PSD) by Malvern analysis, initially and after open-tray exposure; type: physicochemical; details: upon exposure to 30° C./65% RH for 3 days and 25° C./90% RH for 4 hours
Experimental: The size of the particles active is determined by measuring the characteristic equivalent sphere diameter, known as volume diameter, by laser diffraction. In the reported examples, the volume diameter has been determined using a Malvern apparatus. However, other equivalent apparatus may be used.
Co-micronized microparticles and reference micronized glycopyrronium bromide were exposed to the following conditions:
Thin layer (˜0.5 cm) in open tray for 3 days at 30° C./65% relative humidity (RH);
Thin layer (˜0.5 cm) in open tray for 4 hours at 25° C./90% RH
(i) particle size distribution (PSD) in terms of d(v0.1), d(v0.5) and d(v0.9) by Malvern analysis, […]

Q: Which results are given for C[N+]1(C)CCC(OC(=O)C(O)(c2ccccc2)C2CCCC2)C1 (racemic) [GB, glycopyrronium bromide]?
A: Uniformity of distribution ([1]; Example 3 formulation (FF 6 μg/BDP 100 μg/GB 12.5 μg per 10 mg carrier), 12 samples, mean value±RSD): 100.8 (±1.6); Uniformity of distribution ([1]; Example 4 formulation (FF 6 μg/BDP 100 μg/GB 25 μg per 10 mg carrier)): 101.5 (±2.5); Variation in particle size distribution upon exposure [2]: significant increase of the particle size
